Results from the supplement of paper PMC4635364.
Counter-ions that a name gives are not always drawn. The list shows a part of the results. Single values are uncertain here, since repeats match poorly.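 Human fetal ventral-midbrain neural progenitor line ReNCell VM, differentiated without mitogens. Images stained for doublecortin (early neurons) or tyrosine hydroxylase (dopaminergic neurons) were scored by blinded raters against untreated wells (0 = no change). Repeats and both raters were averaged, and compounds averaging 2 or higher were picked as hits for retesting.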

Key:
[1] = test system: ReNCell VM; assay: neuronal differentiation score (DCX+ cell fraction vs untreated, manual image score) (score (-3 to 3)); higher = more neuronal differentiation; conditions: 2 uM, 2 weeks
[2] = test system: ReNCell VM; assay: dopaminergic neuron differentiation score (TH+ cell fraction vs untreated, manual image score) (score (0 to 3)); higher = more TH+ dopaminergic neuron differentiation; conditions: 2 uM, 4 weeks, BDNF 10 ng/ml + GDNF 10 ng/ml

In the case of `CC[C@H]1OC(=O)[C@H](C)[C@@H](O[C@H]2C[C@@](C)(OC)[C@@H](O)[C@H](C)O2)[C@H](C)[C@@H](O[C@@H]2O[C@H](C)C[C@H](N(C)C)[C@H]2O)[C@](C)(O)C[C@@H](C)/C(=N\OCOCCOC)[C@H](C)[C@@H](O)[C@]1(C)O` [Roxithromycin], the neuronal differentiation score ([1]; library: Prestwick) is reported as inactive: 0 and the “dopaminergic neuron differentiation score” value ([2]; library: Prestwick) is reported as inactive: 0.
With `O=C(/C=C/c1ccccc1)NC(NC(=S)Nc1cccc2cccnc12)C(Cl)(Cl)Cl` (stereo not drawn) [Salubrinal] the neuronal differentiation score ([1]; library: Tocriscreen) was inactive: 0 and the “dopaminergic neuron differentiation score” value ([2]; library: Tocriscreen) was inactive: 0.
`Cc1sc(N)c(C(=O)c2cccc(C(F)(F)F)c2)c1C` was tested, and the neuronal differentiation score ([1]; library: Tocriscreen) was inactive: 1 and the “dopaminergic neuron differentiation score” value ([2]; library: Tocriscreen) was inactive: 0.
With `COc1cc(O)c2c(c1)C(=O)c1cc(C)cc(O)c1C2=O` the neuronal differentiation score ([1]; library: Spectrum) was inactive: 0 and the “dopaminergic neuron differentiation score” value ([2]; library: Spectrum) was inactive: 0.
With `NCCS(=O)O` [Hypotaurine] the neuronal differentiation score ([1]; library: LOPAC) was inactive: 0 and the “dopaminergic neuron differentiation score” value ([2]; library: LOPAC) was inactive: 0.
With `CC(C)(C)NCC(O)COc1cccc2c1CC(O)C(O)C2` (stereo not drawn) [Nadolol] the neuronal differentiation score ([1]; library: Prestwick) was inactive: 0 and the “dopaminergic neuron differentiation score” value ([2]; library: Prestwick) was inactive: 0.
With `CC1=CC(=O)CC(C)(C)C1(O)/C=C/C(C)=C\C(=O)O` (mixture of isomers) [ABSCISIC ACID (cis,trans; +/-)] the neuronal differentiation score ([1]; library: Spectrum) was inactive: 0 and the “dopaminergic neuron differentiation score” value ([2]; library: Spectrum) was inactive: 0.
In the case of `N=C(N)SCCc1ccc(CCSC(=N)N)cc1` [1,4-PBIT dihydrobromide], the neuronal differentiation score ([1]; library: LOPAC) is reported as inactive: 0 and the “dopaminergic neuron differentiation score” value ([2]; library: LOPAC) is reported as inactive: 0.
For `COc1ccc(-c2oc3c(CC=C(C)C)c(O[C@@H]4O[C@H](CO)[C@@H](O)[C@H](O)[C@H]4O)cc(O)c3c(=O)c2O[C@@H]2O[C@@H](C)[C@H](O)[C@@H](O)[C@H]2O)cc1`, the neuronal differentiation score ([1]; library: Spectrum) was inactive: 0 and the “dopaminergic neuron differentiation score” value ([2]; library: Spectrum) was inactive: 0.
`Cc1ncc([N+](=O)[O-])n1C` was tested, and the neuronal differentiation score ([1]; library: Spectrum) was inactive: 0 and the “dopaminergic neuron differentiation score” value ([2]; library: Spectrum) was inactive: 0.
For `CCN(CC)CCNC(=O)COc1ccc(OC)cc1` [Mefexamide hydrochloride], the neuronal differentiation score ([1]; library: Prestwick) was inactive: 0 and the “dopaminergic neuron differentiation score” value ([2]; library: Prestwick) was inactive: 0.
In the case of `CC(=O)/N=c1/sc(S(N)(=O)=O)nn1C` [Methazolamide], the neuronal differentiation score ([1]; library: Prestwick) is reported as inactive: 0 and the “dopaminergic neuron differentiation score” value ([2]; library: Prestwick) is reported as inactive: 0.
For `N#Cc1cc2nc(O)c(O)nc2cc1[N+](=O)[O-]` [CNQX disodium salt], the neuronal differentiation score ([1]; library: Tocriscreen) was inactive: 0 and the “dopaminergic neuron differentiation score” value ([2]; library: Tocriscreen) was inactive: 1.
For `Nc1ccc(S(N)(=O)=O)cc1`, the neuronal differentiation score ([1]; library: Spectrum) was inactive: 0 and the “dopaminergic neuron differentiation score” value ([2]; library: Spectrum) was inactive: 0.
In the case of `COc1ccc2c(=O)c(-c3ccc(O)cc3)coc2c1`, the neuronal differentiation score ([1]; library: Spectrum) is reported as inactive: 0 and the “dopaminergic neuron differentiation score” value ([2]; library: Spectrum) is reported as inactive: 0.
With `COc1ccc2[nH]c3c(C)c4ccncc4c(C)c3c2c1` [9-Methoxyellipticine] the neuronal differentiation score ([1]; library: Phytochemical) was inactive: 0 and the “dopaminergic neuron differentiation score” value ([2]; library: Phytochemical) was inactive: 0.
`CCCc1nc(C(C)(C)O)c(C(=O)O)n1Cc1ccc(-c2ccccc2-c2nnn[nH]2)cc1` [Olmesartan] was tested, and the neuronal differentiation score ([1]; library: Prestwick) was inactive: 0 and the “dopaminergic neuron differentiation score” value ([2]; library: Prestwick) was inactive: 0.
For `C=CCOC(Cn1ccnc1)c1ccc(Cl)cc1Cl` (stereo not drawn) [Enilconazole], the neuronal differentiation score ([1]; library: Prestwick) was inactive: 0 and the “dopaminergic neuron differentiation score” value ([2]; library: Prestwick) was inactive: 1.
For `C[N+](C)(C)CCCCCC[N+](C)(C)C` [Hexamethonium bromide], the neuronal differentiation score ([1]; library: LOPAC) was inactive: 0 and the “dopaminergic neuron differentiation score” value ([2]; library: LOPAC) was inactive: 0.
In the case of `O=C1c2c(O)ccc(O)c2C(=O)c2c(NCCNCCO)ccc(NCCNCCO)c21` [Mitoxantrone dihydrochloride], the neuronal differentiation score ([1]; library: Prestwick) is reported as inactive: 0 and the “dopaminergic neuron differentiation score” value ([2]; library: Prestwick) is reported as inactive: 0.
`c1ccc2c(CC3=NCCN3)cccc2c1` was tested, and the neuronal differentiation score ([1]; library: Spectrum) was inactive: 0 and the “dopaminergic neuron differentiation score” value ([2]; library: Spectrum) was inactive: 0.
For `c1ccc(-c2ccc(C(c3ccccc3)n3ccnc3)cc2)cc1` (stereo not drawn), the neuronal differentiation score ([1]; library: Spectrum) was inactive: 0 and the “dopaminergic neuron differentiation score” value ([2]; library: Spectrum) was inactive: 1.
For `Oc1c(I)cc(Cl)c2cccnc12` [Clioquinol], the neuronal differentiation score ([1]; library: Prestwick) was inactive: 1 and the “dopaminergic neuron differentiation score” value ([2]; library: Prestwick) was inactive: 0.
In the case of `CC(=O)OC/C=C(C)/C=C/C=C(C)/C=C/C1=C(C)CCCC1(C)C`, the neuronal differentiation score ([1]; library: Spectrum) is reported as inactive: 0 and the “dopaminergic neuron differentiation score” value ([2]; library: Spectrum) is reported as inactive: 0.
With `CC(N)C(=O)OC(C)(C)Cc1ccc(Cl)cc1` (stereo not drawn) [Alaproclate hydrochloride] the neuronal differentiation score ([1]; library: LOPAC) was inactive: 0 and the “dopaminergic neuron differentiation score” value ([2]; library: LOPAC) was inactive: 0.
With `COc1c2c(c(C(=O)C=CC(C)=Cc3ccccc3)c3c1OCO3)CCN(C)C2` the neuronal differentiation score ([1]; library: Natural) was inactive: 0 and the “dopaminergic neuron differentiation score” value ([2]; library: Natural) was inactive: 0.
For `CO[C@@H]1[C@H](O)[C@@H](CO)O[C@H]1n1cnc2c(NC3CCCCC3)ncnc21`, the neuronal differentiation score ([1]; library: Tocriscreen) was inactive: -3 and the “dopaminergic neuron differentiation score” value ([2]; library: Tocriscreen) was inactive: 0.
For `NC(=O)OCC(O)COc1ccc(Cl)cc1` (stereo not drawn) [Chlorphensin carbamate], the neuronal differentiation score ([1]; library: Prestwick) was inactive: 0 and the “dopaminergic neuron differentiation score” value ([2]; library: Prestwick) was inactive: 0.
`COc1ccc(-c2cc(=O)c3c(OC)c(OC)c(OC)cc3o2)cc1OC` was tested, and the neuronal differentiation score ([1]; library: Spectrum) was inactive: 0 and the “dopaminergic neuron differentiation score” value ([2]; library: Spectrum) was active: 3.
For `O=C(O)C1=CC(=C(c2ccc(O)c(C(=O)O)c2)c2ccc(O)c(C(=O)O)c2)C=CC1=O`, the neuronal differentiation score ([1]; library: Spectrum) was inactive: 0 and the “dopaminergic neuron differentiation score” value ([2]; library: Spectrum) was inactive: 0.
With `COc1ccc2c(c1)C(=O)N(CCc1ccc(S(=O)(=O)NC(=O)NC3CCCCC3)cc1)C(=O)C2(C)C` [Gliquidone] the neuronal differentiation score ([1]; library: Prestwick) was inactive: 0 and the “dopaminergic neuron differentiation score” value ([2]; library: Prestwick) was inactive: 0.
With `O=C(O)/C=C/c1ccc(O)c(O)c1` [Caffeic Acid] the neuronal differentiation score ([1]; library: LOPAC) was inactive: 0 and the “dopaminergic neuron differentiation score” value ([2]; library: LOPAC) was active: 3.
`COc1c2occc2c(OC)c2c(=O)cc(C)oc12` [Khellin] was tested, and the neuronal differentiation score ([1]; library: Prestwick) was inactive: 0 and the “dopaminergic neuron differentiation score” value ([2]; library: Prestwick) was inactive: 0.
`COc1cc2ncnc(Nc3ccc(F)c(Cl)c3)c2cc1OCCCN1CCOCC1` [Iressa] was tested, and the neuronal differentiation score ([1]; library: Tocriscreen) was inactive: 0 and the “dopaminergic neuron differentiation score” value ([2]; library: Tocriscreen) was inactive: 0.
